PubChem BioAssay AID1224830, NIAID | 2016
The deposit covers about 18,000 reagents; this is a part drawn at random. In the full data, about 2,900 (16%) are marked active. 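Calls are made per well; low scores hint the gene aids the LPS response, high scores that it dampens it.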 Repeated entries: four replicate wells of each siRNA pool.

Assay: 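Regulators of TLR4 signalling towards TNF-alpha in macrophage-like cells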 (primary screen)
Cells: human THP-1 monocytic leukaemia cells, TNF dual-luciferase reporter clone, PMA-differentiated to macrophage-like cells
Reagents: siRNA pool against human genes, 50 nM
Time to read-out: LPS for 4 h, given about 3 days after siRNA transfection
Conditions: bacterial LPS (TLR4 ligand), 10 ng/ml
Read-out: 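Ratio of firefly to renilla light, scaled to the plate median and expressed as a robust z-score per replicate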
Reading the numbers: TNF reporter robust z-score: higher = stronger TNF reporter response to LPS
Active means: 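a well is active when its z-score exceeds 2.8 or falls below -1.5; control wells carry no call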

{"target": "TARBP1 (tRNA guanosine 2 -O-methyltransferase TARBP1)", "TNF reporter robust z-score": -0.48, "call": "inactive"}
{"target": "TARBP1 (tRNA guanosine 2 -O-methyltransferase TARBP1)", "TNF reporter robust z-score": -0.01, "call": "inactive"}
{"target": "TARBP1 (tRNA guanosine 2 -O-methyltransferase TARBP1)", "TNF reporter robust z-score": -0.18, "call": "inactive"}
{"target": "TARBP1 (tRNA guanosine 2 -O-methyltransferase TARBP1)", "TNF reporter robust z-score": 0.7, "call": "inactive"}
{"target": "ODAD3 (outer dynein arm docking complex subunit 3)", "TNF reporter robust z-score": -0.63, "call": "inactive"}
{"target": "ODAD3 (outer dynein arm docking complex subunit 3)", "TNF reporter robust z-score": -0.01, "call": "inactive"}
{"target": "ODAD3 (outer dynein arm docking complex subunit 3)", "TNF reporter robust z-score": 0.1, "call": "inactive"}
{"target": "ODAD3 (outer dynein arm docking complex subunit 3)", "TNF reporter robust z-score": -0.14, "call": "inactive"}
{"target": "NELFCD (negative elongation factor complex member C/D)", "TNF reporter robust z-score": 0.37, "call": "inactive"}
{"target": "NELFCD (negative elongation factor complex member C/D)", "TNF reporter robust z-score": 0.9, "call": "inactive"}
{"target": "NELFCD (negative elongation factor complex member C/D)", "TNF reporter robust z-score": -0.3, "call": "inactive"}
{"target": "NELFCD (negative elongation factor complex member C/D)", "TNF reporter robust z-score": -0.15, "call": "inactive"}
{"target": "ZNF408 (zinc finger protein 408)", "TNF reporter robust z-score": 0.4, "call": "inactive"}
{"target": "ZNF408 (zinc finger protein 408)", "TNF reporter robust z-score": 0.14, "call": "inactive"}
{"target": "ZNF408 (zinc finger protein 408)", "TNF reporter robust z-score": -0.43, "call": "inactive"}
{"target": "ZNF408 (zinc finger protein 408)", "TNF reporter robust z-score": 0.54, "call": "inactive"}
{"target": "YPEL2 (yippee like 2)", "TNF reporter robust z-score": 0.81, "call": "inactive"}
{"target": "YPEL2 (yippee like 2)", "TNF reporter robust z-score": 1.84, "call": "inactive"}
{"target": "YPEL2 (yippee like 2)", "TNF reporter robust z-score": 0.4, "call": "inactive"}
{"target": "YPEL2 (yippee like 2)", "TNF reporter robust z-score": 1.41, "call": "inactive"}
{"target": "PELI2 (pellino E3 ubiquitin protein ligase family member 2)", "TNF reporter robust z-score": -0.12, "call": "inactive"}
{"target": "PELI2 (pellino E3 ubiquitin protein ligase family member 2)", "TNF reporter robust z-score": -0.17, "call": "inactive"}
{"target": "PELI2 (pellino E3 ubiquitin protein ligase family member 2)", "TNF reporter robust z-score": -0.74, "call": "inactive"}
{"target": "PELI2 (pellino E3 ubiquitin protein ligase family member 2)", "TNF reporter robust z-score": -0.52, "call": "inactive"}
{"target": "KIR3DL3", "TNF reporter robust z-score": 0.47, "call": "inactive"}
{"target": "KIR3DL3", "TNF reporter robust z-score": -1.28, "call": "inactive"}
{"target": "KIR3DL3", "TNF reporter robust z-score": -1.05, "call": "inactive"}
{"target": "KIR3DL3", "TNF reporter robust z-score": -0.57, "call": "inactive"}

Continued (2 carried over from the part before).
{"target": "KIR3DL3", "TNF reporter robust z-score": -1.05, "call": "inactive"}
{"target": "KIR3DL3", "TNF reporter robust z-score": -0.57, "call": "inactive"}
{"target": "BKGD (beta-keto-L-gulonate decarboxylase)", "TNF reporter robust z-score": -0.49, "call": "inactive"}
{"target": "BKGD (beta-keto-L-gulonate decarboxylase)", "TNF reporter robust z-score": -0.47, "call": "inactive"}
{"target": "BKGD (beta-keto-L-gulonate decarboxylase)", "TNF reporter robust z-score": -0.99, "call": "inactive"}
{"target": "BKGD (beta-keto-L-gulonate decarboxylase)", "TNF reporter robust z-score": -0.38, "call": "inactive"}
{"target": "ALOX15 (arachidonate 15-lipoxygenase)", "TNF reporter robust z-score": -1.47, "call": "inactive"}
{"target": "ALOX15 (arachidonate 15-lipoxygenase)", "TNF reporter robust z-score": -1.94, "call": "active"}
{"target": "ALOX15 (arachidonate 15-lipoxygenase)", "TNF reporter robust z-score": -1.17, "call": "inactive"}
{"target": "ALOX15 (arachidonate 15-lipoxygenase)", "TNF reporter robust z-score": -1.07, "call": "inactive"}
{"target": "ZNF341 (zinc finger protein 341)", "TNF reporter robust z-score": -0.22, "call": "inactive"}
{"target": "ZNF341 (zinc finger protein 341)", "TNF reporter robust z-score": 0.23, "call": "inactive"}
{"target": "ZNF341 (zinc finger protein 341)", "TNF reporter robust z-score": 1.58, "call": "inactive"}
{"target": "ZNF341 (zinc finger protein 341)", "TNF reporter robust z-score": 0.2, "call": "inactive"}
{"target": "CBR4 (carbonyl reductase 4)", "TNF reporter robust z-score": -1.01, "call": "inactive"}
{"target": "CBR4 (carbonyl reductase 4)", "TNF reporter robust z-score": -0.91, "call": "inactive"}
{"target": "CBR4 (carbonyl reductase 4)", "TNF reporter robust z-score": -1.04, "call": "inactive"}
{"target": "CBR4 (carbonyl reductase 4)", "TNF reporter robust z-score": -0.78, "call": "inactive"}
{"target": "ELK4 (ETS transcription factor ELK4)", "TNF reporter robust z-score": -1.84, "call": "active"}
{"target": "ELK4 (ETS transcription factor ELK4)", "TNF reporter robust z-score": -1.61, "call": "active"}
{"target": "ELK4 (ETS transcription factor ELK4)", "TNF reporter robust z-score": -2, "call": "active"}
{"target": "ELK4 (ETS transcription factor ELK4)", "TNF reporter robust z-score": -2.11, "call": "active"}
